# Structures can show the parent of a compound that is named as a salt. The list shows a part of the results. Most entries show no effect beyond the scatter of the controls.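 Reh, a human leukemia cell line, is read out by flow cytometry as the median γH2AX antibody signal in S-phase cells; the score counts standard deviations from the median difference of each paired plate set. Scores above 2.5 were candidate hits; scores below -2 mark compounds lowering MK1775-induced damage.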
# Test system: Reh
# Experiment: Z' of S-phase gammaH2AX difference (drug + MK1775 minus drug alone) (Z-score); higher = stronger synergistic S-phase DNA damage with MK1775
# Conditions: MK1775 concentration 400 nM; first compound 10 µM; 4 h
row,SMILES,Z' of S-phase gammaH2AX difference (Z-score)
1,CSc1ccc2c(c1)C(N1CCN(C)CC1)Cc1ccccc1S2 (centres undefined) [Methiothepin mesylate] + C=CCn1c(=O)c2cnc(Nc3ccc(N4CCN(C)CC4)cc3)nc2n1-c1cccc(C(C)(C)O)n1 [MK1775],inactive: 0.912
2,CNCCCC1c2ccccc2C=Cc2ccccc21 [Protriptyline hydrochloride] + C=CCn1c(=O)c2cnc(Nc3ccc(N4CCN(C)CC4)cc3)nc2n1-c1cccc(C(C)(C)O)n1 [MK1775],inactive: -0.0291
3,CCN1CCC[C@H]1CNC(=O)c1c(OC)ccc(I)c1O + C=CCn1c(=O)c2cnc(Nc3ccc(N4CCN(C)CC4)cc3)nc2n1-c1cccc(C(C)(C)O)n1 [MK1775],inactive: -1.07
4,C[C@]12CCC(=O)C=C1CC[C@@H]1[C@@H]2[C@@H](O)C[C@@]2(C)[C@H]1CC[C@]2(O)C(=O)CO [Hydrocortisone (Cortisol)] + C=CCn1c(=O)c2cnc(Nc3ccc(N4CCN(C)CC4)cc3)nc2n1-c1cccc(C(C)(C)O)n1 [MK1775],inactive: 0.486
5,C[C@]12CCC(=O)C=C1CC[C@@H]1[C@@H]2[C@@H](O)C[C@@]2(C)[C@H]1CC[C@]2(O)C(=O)CO [Hydrocortisone] + C=CCn1c(=O)c2cnc(Nc3ccc(N4CCN(C)CC4)cc3)nc2n1-c1cccc(C(C)(C)O)n1 [MK1775],inactive: -0.663
6,S=C(S)OC1CC2CC1C1CCCC21 [D-609 potassium] + C=CCn1c(=O)c2cnc(Nc3ccc(N4CCN(C)CC4)cc3)nc2n1-c1cccc(C(C)(C)O)n1 [MK1775],inactive: -0.0541
7,Oc1ncnc2[nH]ncc12 [Allopurinol] + C=CCn1c(=O)c2cnc(Nc3ccc(N4CCN(C)CC4)cc3)nc2n1-c1cccc(C(C)(C)O)n1 [MK1775],inactive: 0.568
8,CCC(=O)N1CCN(c2ccc(-n3c(=O)ccc4cnc5ccc(-c6cnc7ccccc7c6)cc5c43)cc2C(F)(F)F)CC1 [Torin 1] + C=CCn1c(=O)c2cnc(Nc3ccc(N4CCN(C)CC4)cc3)nc2n1-c1cccc(C(C)(C)O)n1 [MK1775],inactive: -0.873
9,COc1ccc(CCN(C)CCCC(C#N)(c2ccc(OC)c(OC)c2)C(C)C)cc1OC (centres undefined) [(?)-Verapamil hydrochloride] + C=CCn1c(=O)c2cnc(Nc3ccc(N4CCN(C)CC4)cc3)nc2n1-c1cccc(C(C)(C)O)n1 [MK1775],inactive: 0.565
10,C[N+]1(CCCCC[N+]2(C)CCCC2)CCCC1 [Pentolinium di[L(+)-tartrate]] + C=CCn1c(=O)c2cnc(Nc3ccc(N4CCN(C)CC4)cc3)nc2n1-c1cccc(C(C)(C)O)n1 [MK1775],inactive: 2.41
11,O=C(Nc1ccccc1)c1cc([N+](=O)[O-])ccc1Cl + C=CCn1c(=O)c2cnc(Nc3ccc(N4CCN(C)CC4)cc3)nc2n1-c1cccc(C(C)(C)O)n1 [MK1775],inactive: -0.311
12,O=c1cc(-c2cccc3c2Sc2ccccc2S3)oc(N2CCOCC2)c1 + C=CCn1c(=O)c2cnc(Nc3ccc(N4CCN(C)CC4)cc3)nc2n1-c1cccc(C(C)(C)O)n1 [MK1775],inactive: -0.143
13,Fc1ccc(C(c2ccc(F)cc2)N2CCN(C/C=C/c3ccccc3)CC2)cc1 [Flunarizine dihydrochloride] + C=CCn1c(=O)c2cnc(Nc3ccc(N4CCN(C)CC4)cc3)nc2n1-c1cccc(C(C)(C)O)n1 [MK1775],inactive: -0.59
14,N#Cc1c(O)c2c(-c3ccc(-c4ccccc4O)cc3)csc2[nH]c1=O + C=CCn1c(=O)c2cnc(Nc3ccc(N4CCN(C)CC4)cc3)nc2n1-c1cccc(C(C)(C)O)n1 [MK1775],inactive: 0.622
15,COc1cccc2c1C(=O)c1c(O)c3c(c(O)c1C2=O)C[C@@](O)(C(=O)CO)C[C@@H]3O[C@H]1C[C@H](N)[C@H](O)[C@H](C)O1 [Doxorubicin (Adriamycin)] + C=CCn1c(=O)c2cnc(Nc3ccc(N4CCN(C)CC4)cc3)nc2n1-c1cccc(C(C)(C)O)n1 [MK1775],inactive: 0.845
16,Cn1cnc2c(NCc3ccccc3)nc(NCCO)nc21 [Olomoucine] + C=CCn1c(=O)c2cnc(Nc3ccc(N4CCN(C)CC4)cc3)nc2n1-c1cccc(C(C)(C)O)n1 [MK1775],inactive: 0.505
17,COc1cccc2c1[C@@H]1CN(CCCCn3c(=O)[nH]c4c(sc5ncc(-c6ccccc6)nc54)c3=O)C[C@@H]1CO2 [Fiduxosin hydrochloride] + C=CCn1c(=O)c2cnc(Nc3ccc(N4CCN(C)CC4)cc3)nc2n1-c1cccc(C(C)(C)O)n1 [MK1775],inactive: -0.955

row,SMILES,Z' of S-phase gammaH2AX difference (Z-score)
1,Nc1nc(Cl)nc2c1ncn2[C@H]1C[C@H](O)[C@@H](CO)O1 [Cladribine] + C=CCn1c(=O)c2cnc(Nc3ccc(N4CCN(C)CC4)cc3)nc2n1-c1cccc(C(C)(C)O)n1 [MK1775],inactive: -0.283
2,N=C(N)NC(=O)Cc1c(Cl)cccc1Cl [Guanfacine hydrochloride] + C=CCn1c(=O)c2cnc(Nc3ccc(N4CCN(C)CC4)cc3)nc2n1-c1cccc(C(C)(C)O)n1 [MK1775],inactive: 0.6
3,CN1C[C@H](O)[C@@H](O)[C@H](O)[C@H]1CO [N-Methyl-1-deoxynojirimycin] + C=CCn1c(=O)c2cnc(Nc3ccc(N4CCN(C)CC4)cc3)nc2n1-c1cccc(C(C)(C)O)n1 [MK1775],inactive: 0.432
4,Nc1cccc2c1C(=O)N(C1CCC(=O)NC1=O)C2=O (centres undefined) [Pomalidomide] + C=CCn1c(=O)c2cnc(Nc3ccc(N4CCN(C)CC4)cc3)nc2n1-c1cccc(C(C)(C)O)n1 [MK1775],inactive: 0.171
5,COc1ccccc1N1CCN(CCN(C(=O)C2CCCCC2)c2ccccn2)CC1 + C=CCn1c(=O)c2cnc(Nc3ccc(N4CCN(C)CC4)cc3)nc2n1-c1cccc(C(C)(C)O)n1 [MK1775],inactive: 0.531
6,C=CC1=C(C)c2cc3[nH]c(cc4nc(cc5[nH]c(cc1n2)c(C)c5CCC(=O)O)C(CCC(=O)O)=C4C)c(C)c3C=C [Protoporphyrin IX disodium] + C=CCn1c(=O)c2cnc(Nc3ccc(N4CCN(C)CC4)cc3)nc2n1-c1cccc(C(C)(C)O)n1 [MK1775],inactive: 2.06
7,CO[C@H]1C[C@@H]2CC[C@@H](C)[C@@](O)(O2)C(=O)C(=O)N2CCCC[C@H]2C(=O)O[C@H]([C@H](C)C[C@@H]2CC[C@@H](OCCO)[C@H](OC)C2)CC(=O)[C@H](C)/C=C(\C)[C@@H](O)[C@@H](OC)C(=O)[C@H](C)C[C@H](C)/C=C/C=C/C=C/1C [Everolimus (RAD001)] + C=CCn1c(=O)c2cnc(Nc3ccc(N4CCN(C)CC4)cc3)nc2n1-c1cccc(C(C)(C)O)n1 [MK1775],inactive: -0.493
8,CC(=O)O[C@@]12CO[C@@H]1C[C@H](O)[C@@]1(C)C(=O)[C@H](O)C3=C(C)[C@@H](OC(=O)[C@H](O)[C@@H](NC(=O)OC(C)(C)C)c4ccccc4)C[C@@](O)([C@@H](OC(=O)c4ccccc4)[C@H]21)C3(C)C [Docetaxel (Taxotere)] + C=CCn1c(=O)c2cnc(Nc3ccc(N4CCN(C)CC4)cc3)nc2n1-c1cccc(C(C)(C)O)n1 [MK1775],inactive: -0.017
9,Nc1ncnc2c1ncn2[C@@H]1O[C@H](CO)[C@@H](O)[C@H]1O [Adenosine] + C=CCn1c(=O)c2cnc(Nc3ccc(N4CCN(C)CC4)cc3)nc2n1-c1cccc(C(C)(C)O)n1 [MK1775],inactive: 0.15
10,C[n+]1cc2c3c(ccc2c2ccc4cc5c(cc4c21)OCO5)OCO3 [Sanguinarine chloride] + C=CCn1c(=O)c2cnc(Nc3ccc(N4CCN(C)CC4)cc3)nc2n1-c1cccc(C(C)(C)O)n1 [MK1775],inactive: -1.33
11,C[C@]12CC[C@@H]3c4ccc(O)cc4CC[C@H]3[C@@H]1CC[C@@H]2O [beta-Estradiol] + C=CCn1c(=O)c2cnc(Nc3ccc(N4CCN(C)CC4)cc3)nc2n1-c1cccc(C(C)(C)O)n1 [MK1775],inactive: 0.0413
12,C[C@]12CC[C@@H]3c4ccc(O)cc4CC[C@H]3[C@@H]1CC[C@@H]2O [Estradiol] + C=CCn1c(=O)c2cnc(Nc3ccc(N4CCN(C)CC4)cc3)nc2n1-c1cccc(C(C)(C)O)n1 [MK1775],inactive: 0.335
13,CN(C)CCOC(c1ccccc1)c1ccccc1 [Diphenhydramine hydrochloride] + C=CCn1c(=O)c2cnc(Nc3ccc(N4CCN(C)CC4)cc3)nc2n1-c1cccc(C(C)(C)O)n1 [MK1775],inactive: -0.0607
14,CC(=O)[C@H]1CC[C@H]2[C@@H]3CCC4=CC(=O)CC[C@]4(C)[C@H]3CC[C@]12C [Progesterone] + C=CCn1c(=O)c2cnc(Nc3ccc(N4CCN(C)CC4)cc3)nc2n1-c1cccc(C(C)(C)O)n1 [MK1775],inactive: 1.2
15,OC(CN1CCC(Cc2ccc(F)cc2)CC1)c1ccc(Cl)cc1 (centres undefined) [Eliprodil] + C=CCn1c(=O)c2cnc(Nc3ccc(N4CCN(C)CC4)cc3)nc2n1-c1cccc(C(C)(C)O)n1 [MK1775],inactive: 0.226
16,CN(C)CC/C=C1/c2ccccc2Sc2ccc(Cl)cc21 [Chlorprothixene hydrochloride] + C=CCn1c(=O)c2cnc(Nc3ccc(N4CCN(C)CC4)cc3)nc2n1-c1cccc(C(C)(C)O)n1 [MK1775],inactive: -0.147
17,CC(=O)Oc1ccccc1C(=O)O [Acetylsalicylic acid] + C=CCn1c(=O)c2cnc(Nc3ccc(N4CCN(C)CC4)cc3)nc2n1-c1cccc(C(C)(C)O)n1 [MK1775],inactive: -0.0434

# Reformatted bar-delimited: part of the list above
row | SMILES | Z' of S-phase gammaH2AX difference (Z-score)
13 | CN(C)CCOC(c1ccccc1)c1ccccc1 [Diphenhydramine hydrochloride] + C=CCn1c(=O)c2cnc(Nc3ccc(N4CCN(C)CC4)cc3)nc2n1-c1cccc(C(C)(C)O)n1 [MK1775] | inactive: -0.0607
14 | CC(=O)[C@H]1CC[C@H]2[C@@H]3CCC4=CC(=O)CC[C@]4(C)[C@H]3CC[C@]12C [Progesterone] + C=CCn1c(=O)c2cnc(Nc3ccc(N4CCN(C)CC4)cc3)nc2n1-c1cccc(C(C)(C)O)n1 [MK1775] | inactive: 1.2
